Assay results: publication PMC11653668
No constants are given. Whether binding was seen depends on the method and setting. In cells and extracts the contact can be indirect. Some entries that bind do so weakly or less than the wild type.

Amino acid sequences for entries named in this document (tags omitted).
UniProt Q921F2: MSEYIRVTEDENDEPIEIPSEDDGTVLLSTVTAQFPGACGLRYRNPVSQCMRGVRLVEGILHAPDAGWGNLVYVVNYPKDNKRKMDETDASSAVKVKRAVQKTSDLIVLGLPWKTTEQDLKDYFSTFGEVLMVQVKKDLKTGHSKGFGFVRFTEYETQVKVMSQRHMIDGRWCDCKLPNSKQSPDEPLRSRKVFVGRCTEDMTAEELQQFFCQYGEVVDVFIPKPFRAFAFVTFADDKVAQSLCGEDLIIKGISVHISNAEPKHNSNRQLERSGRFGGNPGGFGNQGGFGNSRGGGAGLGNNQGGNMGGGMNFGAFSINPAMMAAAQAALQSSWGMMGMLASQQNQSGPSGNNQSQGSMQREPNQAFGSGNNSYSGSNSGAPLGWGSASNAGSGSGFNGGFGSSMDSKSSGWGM

Biological target: TDP43 (endogenous, mouse testis) (mouse (endogenous in testis)) (UniProt Q921F2)
Assay: co-IP; endogenous IP from mouse testis lysate with anti-TDP43 antibody on Protein A Sepharose, 4 h at 4 °C; western blot

B1: NAT10 (endogenous, mouse testis) (enzyme, UniProt Q8K224 1-1024)
chain: MNRKKVDNRIRILIENGVAERQRSLFVVVGDRGKDQVVILHHMLSKATVKARPSVLWCYKKELGFSSHRKKRMRQLQKKIKSGTLNLKQDDPFELFVAATNIRYCYYNETHKILGNTFGMCVLQDFEALTPNLLARTVETVEGGGLVVILLRTMNSLKQLYTMTMDVHSRYRTEAHQDVVGRFNERFILSLASCKKCLVIDDQLDILPISSHVASIEALPPQAPDENLSPAALELLELKESLQDTQPVGVLVDCCKTLDQAKAVLKFIEGISEKTLRSTVALTAARGRGKSAALGLAIAGAVAFGYSNIFVTSPSPDNLHTLFEFVFKGFDALQYQEHLDYEIVQSLNPEFNKAVIRVNVFREHRQTIQYIHPADAVKLGQAELVVIDEAAAIPLPLVKSLLGPYLVFMASTINGYEGTGRSLSLKLIQQLRQQSAQSQVSTTAENKTTTTARLASARTLHEVSLQESIRYAPGDAVEKWLNDLLCLDCLNITRIVSGCPLPEACELYYVNRDTLFCYHKASEVFLQRLMALYVASHYKNSPNDLQMLSDAPAHHLFCLLPPVPPTQNALPEVLAVVQVCLEGEISRQSILNSLSRGKKASGDLIPWTVSEQFQDPDFGGLSGGRVVRIAVHPDYQGMGYGSRALQLLQMYYEGKFPCLEEKVLETPQEIRTVSSEAVSLLEEVITPRKDLPPLLLKLNERPAERLDYLGVSYGLTPRLLKFWKRAGFVPVYLRQTPNDLTGEHSCIMLKTLADEDEAEQGAWLAAFWKDFRRRFLALLSYQFSTFSPALSLNIIQNRNVAKSALPALGREHLEALFLPYDLKRLEMYSRNMVDYHLIMDLIPAISRLYFLNQLGDLSLSAAQSALLLGIGLQHKSVDQLEKEIELPSGQLMGLFNRIIRKVVKLFNDVQEKAIEEQMVAVKDVVMEPTMKTLSDDLDEAAKEFQEKHKKEVGKLKDMDLSQYVIRGDDEEWNEVLSKAGQNASIVSLKSDKKRKLETKQEPKQSKKLKKRDNNRKDMKLKRKK
In the case of B1, the binding is reported as “binds”.
